Laboratory results reported in paper PMC7819943, “Rice protein-binding microarrays: a tool to detect cis-acting elements near promoter regions in rice”.
Some of the results follow.

Target: T1, OsSMF1 (Oryza sativa, UniProt Q6ZLB0 1-436)
T1 sequence: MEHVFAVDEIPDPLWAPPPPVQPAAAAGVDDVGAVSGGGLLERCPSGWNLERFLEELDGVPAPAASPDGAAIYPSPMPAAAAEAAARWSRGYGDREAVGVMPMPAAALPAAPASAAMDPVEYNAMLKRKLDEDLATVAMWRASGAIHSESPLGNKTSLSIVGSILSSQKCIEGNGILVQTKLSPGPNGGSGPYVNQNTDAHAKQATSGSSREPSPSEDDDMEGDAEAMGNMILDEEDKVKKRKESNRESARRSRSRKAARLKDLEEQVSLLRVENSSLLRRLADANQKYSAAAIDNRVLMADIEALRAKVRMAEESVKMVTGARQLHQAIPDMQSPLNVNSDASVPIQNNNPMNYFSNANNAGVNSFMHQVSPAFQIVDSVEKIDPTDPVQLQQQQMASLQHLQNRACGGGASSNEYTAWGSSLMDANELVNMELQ
Assay: protein-binding microarray (RPBM); PBS, 2% BSA, 51.3 ng/ul salmon testes DNA, 50 uM zinc acetate, 200 nM TF, 25 C, 1 h; high values mean tight binding
Conditions: protein: recombinant; tags: N-terminal polyhistidine and DsRed monomer fusion (pET32a); chain copies: 2; label: CyDye5-dUTP incorporated in the synthesized complementary strand; 3' TTTTT single-stranded linker to array surface; dsDNA, one strand shown
Summary of the method: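 A custom Agilent array was converted to double-stranded form by primer extension with Cy5-dUTP and blocked with 2% BSA. Protein at 200 nM in PBS with 2% BSA, salmon testes DNA and 50 µM zinc acetate was applied for 1 h at 25 °C, followed by washing. The proteins were polyhistidine–DsRed N-terminal fusions of transcription factors, expressed in E. coli BL21-CodonPlus and Ni–NTA-purified. The binding signal is per-feature fluorescence intensity (arbitrary units) from an Axon 4000B scanner.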

| Sequence | binding signal |
| --- | --- |
| AATGCTGACACGATTGCCACGTGTATGCTACTTAGGACAACGGAGTCACCTAGTGCAG | 31000 fluorescence intensity (a.u.) |
| CGGCGGTGACGGCAGCTGCAGGGGCCACGCGCCCACGCCCCGGAGTCACCTAGTGCAG | 4090 fluorescence intensity (a.u.) |
| AATCACTCCGCGTCATCTTGTTGTCTACTCCATCATATGCCGGAGTCACCTAGTGCAG | 11000 fluorescence intensity (a.u.) |
| TCGCCACCAACTCCGAGCGACAACCGGTACTTTCTCCTTCCGGAGTCACCTAGTGCAG | 3150 fluorescence intensity (a.u.) |
| CTGATACGTCCCACTAGAAACAAGCACGTGTATATCATCGCGGAGTCACCTAGTGCAG | 3390 fluorescence intensity (a.u.) |
| CCAACATATATATTTATATTATGTACACACACATATATAGCGGAGTCACCTAGTGCAG | 4620 fluorescence intensity (a.u.) |
| CCATGTCCACACAGCACGGGTTGGCTACTTGGCTGGTTCTCGGAGTCACCTAGTGCAG | 3450 fluorescence intensity (a.u.) |
| AGTTGCTGTTGTTTAAATTGTGTGTGACAGCAGACAGCTACGGAGTCACCTAGTGCAG | 3180 fluorescence intensity (a.u.) |
| TGTAGTGGCTTTGCATTGACGTGTAATGCAGTGCACACTGCGGAGTCACCTAGTGCAG | 10300 fluorescence intensity (a.u.) |
| GTTTCTTGGTCGTGGGGTCGAGGAGGTGGTGGGTGGTGGTCGGAGTCACCTAGTGCAG | 4370 fluorescence intensity (a.u.) |
| CATCTGTTTACTTTGTCTTGTTAACTCTCTTGCCACATCACGGAGTCACCTAGTGCAG | 4730 fluorescence intensity (a.u.) |
| GGTGTGGATCAGCGGAGAAAAGCTACCACGTCAACTGAATCGGAGTCACCTAGTGCAG | 5180 fluorescence intensity (a.u.) |
| AAACATCGGGAAGGGACTGAGCCACGCTATACTCCCAACACGGAGTCACCTAGTGCAG | 23900 fluorescence intensity (a.u.) |
| GGGGAGCTTTGCCCCTGCGCACACTTGTCACGCTCACGCACGGAGTCACCTAGTGCAG | 3220 fluorescence intensity (a.u.) |
| GAGTGCGCTATTTTCTGGATGGAGGACGTGACAGCATATCCGGAGTCACCTAGTGCAG | 3760 fluorescence intensity (a.u.) |
| CGTCTGCTGTAAACGCGGCTATCACGGCTGCTGCGTGTCTCGGAGTCACCTAGTGCAG | 3820 fluorescence intensity (a.u.) |
| CCACATGTCAGTGACTGGGCCTTGCTCGATATATCCGCGCCGGAGTCACCTAGTGCAG | 3690 fluorescence intensity (a.u.) |
| ATAGATATATTGACATGTCACATCCTTATTGAACTCGATACGGAGTCACCTAGTGCAG | 5890 fluorescence intensity (a.u.) |
| CGGCTATTGTGCTGACGGCAAGCACCGGTTTGTCGTCTACCGGAGTCACCTAGTGCAG | 3690 fluorescence intensity (a.u.) |
| AGACATTTTGCCAGATAATTGGCATGCATGCAGCCTACCACGGAGTCACCTAGTGCAG | 3200 fluorescence intensity (a.u.) |
| AGGCAAGCACGAGAGTCACAGATACATATCCCCTTTAATCCGGAGTCACCTAGTGCAG | 35600 fluorescence intensity (a.u.) |
| GTATAAATTAGATGTTATCCATCGTCATAGCCATCGAAATCGGAGTCACCTAGTGCAG | 3340 fluorescence intensity (a.u.) |
| CACCTCACCTGGAGCCCACCTGCCATTGACTCCGCCGCGCCGGAGTCACCTAGTGCAG | 4760 fluorescence intensity (a.u.) |
| GCTGCCGCGTGTGGTTGCCGACTGTACGGACACCCCAGCCCGGAGTCACCTAGTGCAG | 3580 fluorescence intensity (a.u.) |
| TGTTGGCGATCACGCTCACGACTCGCTTTCGGGACGAGGACGGAGTCACCTAGTGCAG | 3170 fluorescence intensity (a.u.) |
| ACCACGGCAAACGAAGCCTCGCCTTTATGAAACGAGAGAACGGAGTCACCTAGTGCAG | 3500 fluorescence intensity (a.u.) |
| GAACTCTGCCATTGACACTTCAGCTGCAAATACTATTATGCGGAGTCACCTAGTGCAG | 3770 fluorescence intensity (a.u.) |

Some of the entries so far, with each value named:
CCACATGTCAGTGACTGGGCCTTGCTCGATATATCCGCGCCGGAGTCACCTAGTGCAG
  binding signal = 3690 fluorescence intensity (a.u.)
ATAGATATATTGACATGTCACATCCTTATTGAACTCGATACGGAGTCACCTAGTGCAG
  binding signal = 5890 fluorescence intensity (a.u.)
CGGCTATTGTGCTGACGGCAAGCACCGGTTTGTCGTCTACCGGAGTCACCTAGTGCAG
  binding signal = 3690 fluorescence intensity (a.u.)
AGACATTTTGCCAGATAATTGGCATGCATGCAGCCTACCACGGAGTCACCTAGTGCAG
  binding signal = 3200 fluorescence intensity (a.u.)

(next part)

| Sequence | binding signal |
| --- | --- |
| TCACGTGTTAGTTTACCTGTAGCTAACCATCATGGTCATGCGGAGTCACCTAGTGCAG | 4320 fluorescence intensity (a.u.) |
| CCCTCTCCTGCTGTCATGCATGGCTGCATATATACAGGCTCGGAGTCACCTAGTGCAG | 3360 fluorescence intensity (a.u.) |
| CATCGTCGTTATGCTCCACGTCACCGACGCCGGCTCTTCGCGGAGTCACCTAGTGCAG | 33100 fluorescence intensity (a.u.) |
| CATTATTGCAGACGGAACACATCATCACGACATCTCACTCCGGAGTCACCTAGTGCAG | 5920 fluorescence intensity (a.u.) |
| ATAAGGACTAGGAGCGATGACCTTTGTTGTGTGCTTTGTTCGGAGTCACCTAGTGCAG | 3310 fluorescence intensity (a.u.) |
| ACAACACTACAATATGTCCACGTATAAAACTATCCAATATCGGAGTCACCTAGTGCAG | 4920 fluorescence intensity (a.u.) |
| TTTGTACTCATTTTATTACAACATGAACAAACCCTTCTTTCGGAGTCACCTAGTGCAG | 3500 fluorescence intensity (a.u.) |
| CTTGCCTAACCCCACCACTCCACCGCATCACTACACGTGCCGGAGTCACCTAGTGCAG | 3490 fluorescence intensity (a.u.) |
| ACACTATTTACGATTCTGCCACTCATCCCCGCCACGTGGCCGGAGTCACCTAGTGCAG | 13400 fluorescence intensity (a.u.) |
| TCAGTCGGGAGAGGAAGAGTTTGATGGGCCGATGCCGCGGCGGAGTCACCTAGTGCAG | 4030 fluorescence intensity (a.u.) |
| AACCCGCTCCGCCACCACGAGCTCTCCGGCAAGCCAAGTCCGGAGTCACCTAGTGCAG | 34300 fluorescence intensity (a.u.) |
| TTTTAGTGGTAGACGACGTACCCATTAACAGTGAGGTGTTCGGAGTCACCTAGTGCAG | 3140 fluorescence intensity (a.u.) |
| TCCTGCTTGTATCCAAGTGTGCTGCCGTGGACGAGGCTACCGGAGTCACCTAGTGCAG | 5540 fluorescence intensity (a.u.) |
| AGACTTATTTTGGGTTTGGGTGCCCTTATGAGTCACTTGTCGGAGTCACCTAGTGCAG | 6410 fluorescence intensity (a.u.) |
| CCTCGGGGAGGGCGTGGCAAGCGGCACGCGTGGCGGGGAGCGGAGTCACCTAGTGCAG | 5890 fluorescence intensity (a.u.) |
| GTTTGGGGTTTCTTTCCTGCCTCGTGAGCTGACGCCGGTGCGGAGTCACCTAGTGCAG | 4080 fluorescence intensity (a.u.) |
| ATAGCAGAGATAATACACATGACATGTTTCCCAGCTATATCGGAGTCACCTAGTGCAG | 3140 fluorescence intensity (a.u.) |
| TGGTTGAAAATCAAGATTCAGTTATAATATACCACATCAGCGGAGTCACCTAGTGCAG | 5000 fluorescence intensity (a.u.) |
| GGGCCGTAAATCTTGTGTGTCACGACTCACGAGTAAACCGCGGAGTCACCTAGTGCAG | 3640 fluorescence intensity (a.u.) |
| CTCTTGGTTGGGTGCCAACTGCCAATGACTTGACAAGTTGCGGAGTCACCTAGTGCAG | 3410 fluorescence intensity (a.u.) |
| ACGCAGGCGCACATCAGCCACGCGATAACCGAATCCGATGCGGAGTCACCTAGTGCAG | 3350 fluorescence intensity (a.u.) |
| ACCGGGCTGGTCGATCTGCCTCGTTGGCGGCCGGCCGCCGCGGAGTCACCTAGTGCAG | 4410 fluorescence intensity (a.u.) |
| ATGACATCAATGAAATGGTTAGGTAAGAAAATTATGTCCGCGGAGTCACCTAGTGCAG | 5310 fluorescence intensity (a.u.) |
| CGCACCCACGCAGACGCAGGGAGGCGCACCATGTACTGAGCGGAGTCACCTAGTGCAG | 21400 fluorescence intensity (a.u.) |
| GAATCAGTAAATAAAGCGCTAGGTTTAATGATGTCATGGACGGAGTCACCTAGTGCAG | 6840 fluorescence intensity (a.u.) |
| TGTCATTTGCTGATTCATATTGCTATCTTATTTAGTTGGTCGGAGTCACCTAGTGCAG | 5100 fluorescence intensity (a.u.) |
| CGCTTGCTGATGATCTGTTCCACGGTGACCACGACTCGCTCGGAGTCACCTAGTGCAG | 3190 fluorescence intensity (a.u.) |
